Assay [1] relates to MOLM-14 (ITD, D835Y) cells. Briefly: Antiproliferative activity (CellTitre-Blue, 72 h). The note with it: Homo sapiens, MOLM-14, 72 h, 72 h incubation, triplicates; read-out: IC50 (mean ±SD, nM) MOLM-14 (ITD, D835Y). The class given is cell-based. On the procedure: (§1) Cells were seeded into 96-well tissue culture-treated plates at 2.0 × 10^4 cells/mL for up to 24 h. DMSO stock solutions of compounds were serially diluted first in DMSO and subsequently into RPMI before being added to the cell cultures in triplicates, with 10 μM being the highest tested concentration. The plates were incubated for 72 h as above. The CellTitre-Blue assay (Promega, Madison WI) was then added to the cultures and incubated a further 4 h before the fluorescence measured following the manufacturers recommendations. The fluorescence data from compounds were normalized to that DMSO and the resulting data fitted to a non-linear regression equation to obtain IC50 using GraphPad Prism 5.0 Software (La Jolla, CA, USA).

For assay [2], the system named is MV4–11 cells. Description: Antiproliferative activity (CellTitre-Blue, 72 h). The class given is cell-based. Particulars: Homo sapiens, MV4-11, 72 h, 72 h incubation, triplicates; read-out: IC50 (mean ±SD, nM) MV4–11. Here is the method: as §1

On to `CO[C@@H]1[C@H](N(C)C(=O)c2ccccc2)C[C@H]2O[C@]1(C)n1c3ccccc3c3c4c(c5c6ccccc6n2c5c31)C(=O)NC4` [Midostaurin, reference compound], for which the IC50 came to 19.6 ± 0.3 nM in assay [1] and 18.5 ± 2.4 nM in assay [2].

By IC50 is commonly meant the point on the concentration scale where inhibition reaches its midpoint.

The values above are taken from PMC6413339 (EBioMedicine, 2019).
